Some test systems named below: WDR1 (human); WDR24 (human); WDR34 (human); WDR4 (human); WFDC6 (human); WTAP (human); YIPF1 (human); YKT6 (human); YSK4 (human); ZAP70 (human); ZBED2 (human).
What all share (assay): protein microarray (ProtoArray v5.0), streptavidin-Alexa Fluor 647
Common to all, as to details: 3'-biotin; 20 mM Tris (pH 7.5), 5 mM MgCl2, 100 mM KCl, 0.1% Tween-20, A/T-rich and random oligonucleotide blockers; temperature not stated; high values mean tight binding

Amino acid sequences for entries named in this document (tags omitted). A change or cut given only in a name is not applied to a line headed by its entry.
UniProt Q9BRP8: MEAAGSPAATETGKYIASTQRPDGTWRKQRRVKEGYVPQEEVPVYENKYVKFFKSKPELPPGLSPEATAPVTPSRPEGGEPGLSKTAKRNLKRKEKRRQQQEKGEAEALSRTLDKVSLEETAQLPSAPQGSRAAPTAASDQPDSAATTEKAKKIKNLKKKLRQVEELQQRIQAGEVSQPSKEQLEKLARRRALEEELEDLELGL

Experiment [1] concerns Visinin-like protein 1 (human).
Experiment [2] concerns Voltage-dependent L-type calcium channel subunit beta-1 (human).
In experiment [3] the test system is WAS protein family homolog 1 (human).
For another experiment, the target named is T1, WBP2 (UniProt Q969T9).
T1 sequence: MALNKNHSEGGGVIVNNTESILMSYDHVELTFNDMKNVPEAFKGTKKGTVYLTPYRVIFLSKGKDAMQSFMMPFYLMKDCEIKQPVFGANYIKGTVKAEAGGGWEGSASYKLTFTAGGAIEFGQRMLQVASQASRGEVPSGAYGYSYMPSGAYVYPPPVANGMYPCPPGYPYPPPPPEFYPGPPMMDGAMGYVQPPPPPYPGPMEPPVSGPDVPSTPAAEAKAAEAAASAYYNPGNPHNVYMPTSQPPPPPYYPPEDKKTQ

The subject of experiment [4] is WD repeat-containing protein 55 (human).
The next experiment deals with T2, WDR18 (UniProt Q9BV38).
T2 sequence: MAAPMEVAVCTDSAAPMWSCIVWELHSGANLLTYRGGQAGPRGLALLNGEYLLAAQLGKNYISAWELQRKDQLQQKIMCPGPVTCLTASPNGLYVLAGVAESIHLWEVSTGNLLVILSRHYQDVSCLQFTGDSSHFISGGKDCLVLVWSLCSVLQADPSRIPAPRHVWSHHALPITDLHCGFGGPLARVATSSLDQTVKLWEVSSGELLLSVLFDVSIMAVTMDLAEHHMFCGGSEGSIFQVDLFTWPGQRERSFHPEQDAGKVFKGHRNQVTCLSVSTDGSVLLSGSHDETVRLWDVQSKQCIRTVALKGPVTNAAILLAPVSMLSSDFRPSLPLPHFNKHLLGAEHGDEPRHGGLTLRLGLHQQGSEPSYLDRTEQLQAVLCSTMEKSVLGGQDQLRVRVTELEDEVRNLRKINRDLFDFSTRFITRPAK

The target of the next experiment is T3, WDR57 (UniProt Q96DI7).
T3 sequence: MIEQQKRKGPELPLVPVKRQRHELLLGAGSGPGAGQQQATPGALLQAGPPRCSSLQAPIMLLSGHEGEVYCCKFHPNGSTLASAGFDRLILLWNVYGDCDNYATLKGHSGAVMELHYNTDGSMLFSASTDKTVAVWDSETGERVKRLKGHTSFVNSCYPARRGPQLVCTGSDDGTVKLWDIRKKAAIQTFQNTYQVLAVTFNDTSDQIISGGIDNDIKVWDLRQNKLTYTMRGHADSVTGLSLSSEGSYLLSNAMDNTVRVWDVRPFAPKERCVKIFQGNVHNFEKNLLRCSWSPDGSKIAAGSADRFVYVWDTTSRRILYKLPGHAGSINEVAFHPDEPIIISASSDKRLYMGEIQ

The target of another experiment is WIBG (UniProt Q9BRP8).
Experiment [5] concerns Wilms tumor-associated protein (human).

Values joined by “and” are separate entries in the source; they are usually repeats but may differ in a detail not shown here. Equal values may be shown once. The list shows a part of the results. For some assays here: The source does not settle which construct or isoform was used.

In the case of “GGTGACAGGGGTATGGGGAGGGG [G4-2 biotinylated (Ct1)]”, the binding signal in experiment [1] was -0.384 z-score; in [2], 3.48 z-score; in experiment [3] it was -0.4 z-score; in the experiment with WBP2, -0.385 z-score; in experiment [4], -0.368 z-score; in the experiment with WDR1 (human), -0.38 z-score. For the same sequence, the binding signal is -0.386 z-score with WDR18; -0.37 z-score with WDR24 (human); -0.378 z-score in the experiment on WDR34 (human); -0.394 z-score with WDR4 (human); 3.75 z-score with WDR57; -0.397 z-score in the experiment with WFDC6 (human). The binding signal with WIBG was 4.08 z-score; with WTAP (human), -0.396 z-score and -0.379 z-score; in [5] it was 4.03 z-score; in the experiment on YIPF1 (human), -0.369 z-score; in the experiment with YKT6 (human) it was -0.401 z-score; with YSK4 (human), -0.372 z-score. The binding signal with ZAP70 (human) was -0.361 z-score; in the experiment with ZBED2 (human) it was -0.38 z-score.

The values above are taken from PMC5996148.
